PubChem BioAssay AID1671195, Yale University – 2021
Here is an unselected part of about 22,000 reagents. Over the whole deposit, about 1,510 (6.9%) are marked active. 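Active includes knockdowns raising or lowering LDL uptake; positive z-scores mean more uptake, negative mean less.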 Reagents against one gene are numbered here.

Aim: 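Regulators of LDL receptor activity judged by labelled LDL uptake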 (primary screen)
Cell system: human Huh7 hepatoma cells
Reagent: siRNA pool against human genes, 18 nM
Time to read-out: about 2 to 2.5 days of knockdown, then 8 h LDL uptake
Challenge: DiI-labelled LDL at 30 µg/ml for 8 h, in lipoprotein-deficient serum medium
Measurement: 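Fluorescent LDL signal imaged in cells, scaled to the plate median, robust z-score for each replicate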
Direction: robust z-score: higher = more LDL uptake after knockdown
Rule for the call: 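a gene counts as active if at least two replicate z-scores exceed ±2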

After knock-down of NLRP12 (NLR family pyrin domain containing 12) the results were robust z-score, replicate 1 = -0.926; robust z-score, replicate 2 = -0.414; robust z-score, replicate 3 = -0.762; inactive.
Depletion of BTC (betacellulin) came out at: robust z-score, replicate 1 = -0.756; robust z-score, replicate 2 = -0.169; robust z-score, replicate 3 = -0.312; inactive.
Silencing of CHST2 (carbohydrate sulfotransferase 2) came out at: robust z-score, replicate 1 = 0.621; robust z-score, replicate 2 = -0.0338; robust z-score, replicate 3 = 0.415; inactive.
Silencing of SLC17A1 came out at: robust z-score, replicate 1 = -1.62; robust z-score, replicate 2 = -1.15; robust z-score, replicate 3 = -1.36; inactive.
Against PGBD5 (piggyBac transposable element derived 5) the deposit lists robust z-score, replicate 1 = 0.294; robust z-score, replicate 2 = -0.443; robust z-score, replicate 3 = -0.242; inactive.
After knock-down of SLC38A12, the record shows robust z-score, replicate 1 = -0.174; robust z-score, replicate 2 = 0.00911; robust z-score, replicate 3 = -0.219; inactive.
Silencing of LTF (lactotransferrin) resulted in: robust z-score, replicate 1 = 0.25; robust z-score, replicate 2 = 0.671; robust z-score, replicate 3 = 0.505; inactive.
ERICH1 (glutamate rich 1) #1 scored robust z-score, replicate 1 = 0.587; robust z-score, replicate 2 = -0.388; robust z-score, replicate 3 = -0.563; inactive.
With knock-down of ERICH1 (glutamate rich 1) #2, the screen gave robust z-score, replicate 1 = -1.19; robust z-score, replicate 2 = -1.16; robust z-score, replicate 3 = -0.928; inactive.
Against CLTA (clathrin light chain A) the deposit lists robust z-score, replicate 1 = -0.17; robust z-score, replicate 2 = -0.533; robust z-score, replicate 3 = -1.28; inactive.
After knock-down of TPTE2P3 (TPTE2 pseudogene 3), the screen gave robust z-score, replicate 1 = 0.0189; robust z-score, replicate 2 = 0.662; robust z-score, replicate 3 = 0.214; inactive.
Silencing of BPI (bactericidal permeability increasing protein) came out at: robust z-score, replicate 1 = 0.304; robust z-score, replicate 2 = 0.347; robust z-score, replicate 3 = 0.404; inactive.
ATPSCKMT (ATP synthase c subunit lysine N-methyltransferase) scored robust z-score, replicate 1 = 0.275; robust z-score, replicate 2 = 0.0102; robust z-score, replicate 3 = 0.727; inactive.
With knock-down of LOC389290 (retired record), the record shows robust z-score, replicate 1 = -1.07; robust z-score, replicate 2 = -1.52; robust z-score, replicate 3 = -1.28; inactive.
HACL1 (2-hydroxyacyl-CoA lyase 1) gave robust z-score, replicate 1 = 0.371; robust z-score, replicate 2 = 0.452; robust z-score, replicate 3 = 2.59; inactive.
Against RHOA (ras homolog family member A) the deposit lists robust z-score, replicate 1 = -0.636; robust z-score, replicate 2 = 1.44; robust z-score, replicate 3 = 0.332; inactive.
Silencing of ZYG11A (zyg-11 family member A, cell cycle regulator) resulted in: robust z-score, replicate 1 = 1.04; robust z-score, replicate 2 = 1.26; robust z-score, replicate 3 = 0.695; inactive.
For EAF2 (ELL associated factor 2) the deposit lists robust z-score, replicate 1 = -0.0337; robust z-score, replicate 2 = -0.365; robust z-score, replicate 3 = -0.295; inactive.
After knock-down of FLII (FLII actin remodeling protein), the screen gave robust z-score, replicate 1 = -0.67; robust z-score, replicate 2 = -0.607; robust z-score, replicate 3 = -0.724; inactive.
Against AMY2B (amylase alpha 2B) the deposit lists robust z-score, replicate 1 = 1.3; robust z-score, replicate 2 = 1.32; robust z-score, replicate 3 = 0.501; inactive.
PPP1R14C (protein phosphatase 1 regulatory inhibitor subunit 14C) gave robust z-score, replicate 1 = -1.86; robust z-score, replicate 2 = -1.65; robust z-score, replicate 3 = -1.75; inactive.
SELENON (selenoprotein N) gave robust z-score, replicate 1 = -0.28; robust z-score, replicate 2 = -0.135; robust z-score, replicate 3 = -0.142; inactive.
For SEPHS1P4 (selenophosphate synthetase 1 pseudogene 4), the values are robust z-score, replicate 1 = -0.418; robust z-score, replicate 2 = -0.434; robust z-score, replicate 3 = -0.724; inactive.
Against HDAC11 (histone deacetylase 11), the entry reads robust z-score, replicate 1 = -0.173; robust z-score, replicate 2 = -0.0643; robust z-score, replicate 3 = -0.751; inactive.

Copied from the list.
SEPHS1P4 (selenophosphate synthetase 1 pseudogene 4), robust z-score, replicate 3: -0.724
PGBD5 (piggyBac transposable element derived 5), call: inactive
